In PubChem BioAssay AID1487 (National Center for Advancing Translational Sciences (NCATS), 2009):
The list shows a part of the results. The main result of the screen is listed elsewhere. These columns were measured beside it and carry no call. Most of these compounds were active or inconclusive in the main read-out, so they are no random draw. The note in brackets gives the kind of curve behind each potency; many fits are weak.

Experiment: qHTS Assay for Modulators of Lamin A Splicing
Conditions: HeLa LMNA splicing GFP/RFP minigene ratio, 48 h
In short: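 S3 HeLa stable clones carrying a lamin A-EGFP splicing minigene plus DsRed2 were seeded at 600 cells/well in Opti-MEM with 2% FBS, pin-dosed and incubated 48 h at 37°C. Acumen cytometry (488 nm) gave the GFP/RFP total-intensity ratio.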

[1] = measured here: GFP splicing reporter channel
[2] = measured here: RFP viability control channel

For `COc1ccc(-c2nn(-c3ccccc3)cc2/C=C/C(=O)N2CCOCC2)cc1OC`, the AC50 [1] was 1.78 µM [falling, full curve, poor fit] and the AC50 [2] was 1 µM [falling, partial curve, poor fit].
In the case of `COc1ccc(CC2(CO)CCN(Cc3cnn(-c4ccc(F)cc4)c3)CC2)cc1`, the AC50 [1] is reported as 1.78 µM [falling, partial curve, poor fit] and the AC50 [2] is reported as 1.41 µM [falling, partial curve, poor fit].
For `COc1ccc(/C=C2/CCc3ccccc3C2=O)cc1CN1CCOCC1`, the AC50 [1] was 12.6 µM [rising, single point] and the AC50 [2] was 12.6 µM [rising, single point].
For `CCc1nnc(NC(=O)CSc2nccn2Cc2ccccc2)s1`, the AC50 [1] was 0.562 µM [rising, single point].
With `O=C(Cn1c(-c2cccs2)cc2ccccc21)NCCCN1CCN(c2cccc(Cl)c2)CC1` the AC50 [1] was 28.2 µM [falling, partial curve] and the AC50 [2] was 28.2 µM [falling, single point].
In the case of `CSc1nc(N)nc(SCC(=O)OC(C)C)c1C#N`, the AC50 [2] is reported as 7.94 µM [rising, partial curve, poor fit].
In the case of `CC1=CC(=NOC(=O)/C=C/c2ccccc2)C=C(C)C1=O`, the AC50 [1] is reported as 0.0282 µM [falling, single point] and the AC50 [2] is reported as 0.0224 µM [falling, single point].
In the case of `O=C(NC(Nc1nc2ccc([N+](=O)[O-])cc2s1)(C(F)(F)F)C(F)(F)F)c1cccnc1`, the AC50 [1] is reported as 0.794 µM [falling, full curve] and the AC50 [2] is reported as 1.26 µM [falling, partial curve].
In the case of `COc1ccccc1C(=O)Nc1ccc2c(c1)nc1n2CCSC1`, the AC50 [2] is reported as 20 µM [rising, partial curve, poor fit].
For `Cc1ccc(S(=O)(=O)N/N=C\c2cc3c(cc2[N+](=O)[O-])OCO3)cc1`, the AC50 [2] was 35.5 µM [rising, single point].
For `C/C(=N\NC(=O)c1cc(C(C)C)[nH]n1)c1ccco1`, the AC50 [1] was 2.24 µM [falling, full curve, poor fit].
For `COc1ccc(/C=N/NC(=O)c2ccc(COc3cccc4cccnc34)cc2)cc1OC`, the AC50 [2] was 0.562 µM [rising, full curve].
In the case of `CC(C)(C)c1ccc(C(=O)N2CCN(c3nc4ccccc4o3)CC2)cc1`, the AC50 [2] is reported as 5.62 µM [rising, single point].
In the case of `CN1CCN(c2ncnc3ccc(-c4cccc(NS(C)(=O)=O)c4)cc23)CC1`, the AC50 [1] is reported as 3.98 µM [falling, partial curve] and the AC50 [2] is reported as 8.91 µM [falling, partial curve].
For `C/C(=N\NC(=S)Nc1ccc(F)cc1)C1CC1`, the AC50 [1] was 7.08 µM [falling, full curve] and the AC50 [2] was 3.55 µM [falling, full curve].
With `C=C(C)C1Cc2c(C)nn(-c3nc(C)cc(C)n3)c2C1` (stereo unspecified) the AC50 [2] was 11.2 µM [rising, partial curve].
For `CCc1ccc2c(c1)C1(NN=C(c3ccccc3)S1)C(=O)N2` (stereo unspecified), the AC50 [1] was 35.5 µM [rising, single point] and the AC50 [2] was 12.6 µM [rising, partial curve].
In the case of `Cc1cc(-n2c(SCc3ccccc3F)nc3[nH]ncc3c2=O)ccc1Cl`, the AC50 [1] is reported as 35.5 µM [falling, single point].
With `O=[N+]([O-])c1ccc(C(=S)N2CCN(Cc3ccccc3)CC2)cc1` the AC50 [2] was 31.6 µM [rising, single point].
In the case of `Cc1ccc(C(=O)Nc2ccccc2)cc1S(=O)(=O)Nc1ccc(Cl)cn1`, the AC50 [1] is reported as 0.0251 µM [falling, full curve, poor fit] and the AC50 [2] is reported as 35.5 µM [falling, single point].
With `OCCN(Cc1ccccc1)C(=S)Nc1ccc(F)cc1` the AC50 [1] was 0.0447 µM [falling, full curve, poor fit] and the AC50 [2] was 6.31 µM [falling, full curve].
In the case of `COc1ccc(Cl)cc1NC(=O)C(C)n1c(=O)cc(C(F)(F)F)c2c(C)nn(C)c21` (stereo unspecified), the AC50 [2] is reported as 0.0562 µM [falling, full curve, poor fit].
In the case of `CC(C)c1ccc(-c2nn(-c3ccccc3)cc2C2C(C#N)=C(N)OC3=C2C(=O)CC(C)(C)C3)cc1` (stereo unspecified), the AC50 [1] is reported as 12.6 µM [falling, partial curve] and the AC50 [2] is reported as 15.8 µM [falling, single point].
In the case of `O=C(NC(=S)N1CCN(Cc2ccc3c(c2)OCO3)CC1)c1cccc(Br)c1`, the AC50 [1] is reported as 15.8 µM [rising, single point] and the AC50 [2] is reported as 25.1 µM [rising, single point].
With `COc1ccc(S(=O)(=O)Nc2cc(Cl)ccc2OC)cc1` the AC50 [1] was 35.5 µM [rising, single point] and the AC50 [2] was 11.2 µM [rising, partial curve].
For `COc1ccc(CNCCc2ccc(Cl)cc2)cc1OCc1ccccc1`, the AC50 [1] was 31.6 µM [falling, partial curve, poor fit] and the AC50 [2] was 31.6 µM [falling, partial curve].
For `O=C(CN1CCCc2ccccc21)N/N=C/c1c(O)ccc2ccccc12`, the AC50 [2] was 17.8 µM [rising, single point].
For `CCOC(=O)c1c(NC(=O)CSc2nc3ccccc3o2)sc(C(C)=O)c1C`, the AC50 [1] was 3.16 µM [rising, partial curve] and the AC50 [2] was 5.62 µM [rising, partial curve, poor fit].
With `COc1cccc2c(=O)cc(C)n(CC(=O)Nc3ccccc3C)c12` the AC50 [2] was 22.4 µM [rising, single point].
With `CC1(N2CCOCC2)CC2(O)C(=[N+]1[O-])CCc1c2no[n+]1[O-]` (stereo unspecified) the AC50 [2] was 20 µM [falling, single point].
In the case of `Cc1nnc(-c2ccco2)c2cn(-c3cccc(Br)c3)nc12`, the AC50 [2] is reported as 14.1 µM [rising, partial curve, poor fit].
For `Cc1[nH]nc2c1C(c1cc(Br)cs1)C(C#N)=C(N)O2` (stereo unspecified), the AC50 [1] was 35.5 µM [falling, single point] and the AC50 [2] was 35.5 µM [falling, single point].
In the case of `CC1(C)C(O)=C(c2nc3ccccc3[nH]2)C(=N)N1c1ccccc1`, the AC50 [1] is reported as 35.5 µM [falling, single point] and the AC50 [2] is reported as 17.8 µM [falling, single point].
With `COc1ccc(NC(=O)CSc2ccccc2)cc1S(=O)(=O)N1CCCCC1` the AC50 [1] was 12.6 µM [rising, single point] and the AC50 [2] was 35.5 µM [rising, single point].
For `N#Cc1ccccc1NC(=O)c1cc(=O)c2ccccc2o1`, the AC50 [2] was 1.26 µM [rising, single point].
With `O=C(Nc1cc(Cl)cc(Cl)c1)c1cccc(OC(F)F)c1` the AC50 [2] was 12.6 µM [rising, single point].
With `Cc1cc(NC(=O)C2CCN(S(=O)(=O)Cc3ccccc3)CC2)ccc1-n1cnnn1` the AC50 [2] was 35.5 µM [rising, single point].
For `COc1ccc(N2CCN(c3nc(-c4ccccc4F)nc4ccccc34)CC2)cc1`, the AC50 [2] was 0.178 µM [falling, full curve, poor fit].
In the case of `O=[N+]([O-])c1ccc(-n2nnnc2CN2CCOCC2)cc1`, the AC50 [2] is reported as 0.2 µM [falling, full curve, poor fit].
In the case of `Nc1nc(SCc2ccc([N+](=O)[O-])cc2)c2ncn(C3OC(CO)C(O)C3O)c2n1` (stereo unspecified), the AC50 [1] is reported as 0.0562 µM [falling, full curve] and the AC50 [2] is reported as 0.02 µM [falling, full curve, poor fit].
For `CC(=O)c1cccc(NS(=O)(=O)c2cc(OCC(N)=O)c(C)cc2Cl)c1`, the AC50 [2] was 20 µM [rising, single point].
In the case of `CC(=O)Oc1ccc(Oc2ccc(-c3noc(C)n3)cc2)cc1`, the AC50 [2] is reported as 14.1 µM [rising, partial curve].
In the case of `O=C(c1cccc2c1-c1ccccc1/C2=N/O)N1CCCCC1`, the AC50 [1] is reported as 14.1 µM [rising, partial curve] and the AC50 [2] is reported as 15.8 µM [rising, single point].
For `Cc1cccc(C(=O)NC(=S)Nc2ccc3[nH]c(=O)[nH]c3c2)c1`, the AC50 [2] was 5.62 µM [falling, single point].
With `COc1cccc(N2CC(C(=O)Nc3nnc(SCC(=O)c4ccccc4)s3)CC2=O)c1` (stereo unspecified) the AC50 [2] was 2.82 µM [rising, partial curve].
For `Cc1ccccc1CSc1nc2nc(C)c(Cc3ccccc3)c(C)n2n1`, the AC50 [1] was 2 µM [falling, partial curve, poor fit].
With `CCN1CCS/C1=C\C=C\C1=[N+](CC)CCS1` the AC50 [1] was 0.316 µM [falling, partial curve, poor fit].
For `COc1ccccc1CNc1ncncc1-c1ccccc1Cl`, the AC50 [1] was 11.2 µM [falling, partial curve].
For `Cc1cc(C)nc(NC(N)=NC(C)c2ccccc2)n1` (stereo unspecified), the AC50 [1] was 1.12 µM [falling, partial curve, poor fit].
With `Cc1cc(C(=O)NCCc2ccc(Cl)cc2)no1` the AC50 [2] was 0.0562 µM [falling, full curve, poor fit].
In the case of `O=C(c1ccco1)c1cn(CC(=O)N2CCCc3ccccc32)c2ccccc12`, the AC50 [2] is reported as 14.1 µM [rising, single point].
In the case of `Cc1ccccc1C(=O)N/N=C/c1ccc([N+](=O)[O-])s1`, the AC50 [2] is reported as 8.91 µM [falling, partial curve].
In the case of `Cc1cc(NC(=O)CSc2cn(CCNC(=O)c3ccc(Cl)cc3)c3ccccc23)no1`, the AC50 [2] is reported as 12.6 µM [rising, partial curve].
With `COc1ccc(OC)c(C(c2nnnn2C2CCCC2)N2CCN(c3ccccc3F)CC2)c1` (stereo unspecified) the AC50 [2] was 8.91 µM [rising, partial curve, poor fit].
With `CC1CCN(C(=O)CCCOc2ccc(Cl)cc2)CC1` the AC50 [2] was 35.5 µM [rising, single point].
